Several values for one entry are separate records, joined by “and”; a condition that tells them apart may be missing. Identical values can stand only once. The structures given here were assigned with low confidence; some may be wrong.
Target: AuroraA-TPX2 (Homo sapiens, UniProt O14965)
Assay: AuroraA-TPX2 Homogeneous Time Resolved Fluorescent (HTRF) kinase assay
Details: read-out: AurA_IC50_IP (uM Avg); average

Protein sequences, listed by entry. Tags and fused reporters are not part of them. Residues count along the entry.
UniProt O14965, 133-383 limits assumed: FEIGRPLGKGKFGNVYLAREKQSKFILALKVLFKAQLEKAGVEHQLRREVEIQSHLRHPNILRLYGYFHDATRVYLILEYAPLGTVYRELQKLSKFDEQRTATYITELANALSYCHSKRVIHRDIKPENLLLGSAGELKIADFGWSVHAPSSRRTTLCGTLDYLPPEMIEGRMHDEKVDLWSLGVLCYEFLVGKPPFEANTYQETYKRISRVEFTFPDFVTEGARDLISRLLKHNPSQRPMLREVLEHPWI
UniProt Q9ULW0, 1-43 partner limits assumed: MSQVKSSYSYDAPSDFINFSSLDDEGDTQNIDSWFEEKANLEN

Structure (SMILES) | IC50
COc1cnc2c(Sc3ccc(Nc4nnc(N5CCN6CCCCC[C@@H]6C5)c5ccccc45)cc3)ccnc2c1 | 0.018 µM and 0.017 µM
Cc1ccc(-c2nnc(Nc3ccc(Oc4ccnc5ccccc45)cc3)c3ccccc23)cc1N | 0.126 µM and 0.116 µM

From patent publication US8557816B2, “Aurora kinase modulators and method of use” (Amgen Inc., priority 2007, dated 2013)
